The supplement of paper PMC4604168 (melanoma cell lines)
Some of the results follow. Many values rest on one well or one pass, so single values are uncertain.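 Cells were imaged in 1,536-well plates, and nuclei stained with an antibody against cleaved PARP were counted against all DNA-stained nuclei to give the apoptosis fraction. Screening doses were chosen to leave most cells alive, and resting and induced cleaved-PARP levels differ strongly between cell lines.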

Columns and labels:
Assay in all cases: cleaved PARP positive nuclei fraction relative to DMSO control; melanoma cells; higher = more apoptosis
Settings in all cases: library dose: low library concentration; 72 h
[1] = tested on: 501Mel
[2] = tested on: A101D
[3] = tested on: A2058
[4] = tested on: A375
[5] = tested on: C32
[6] = tested on: CBRC013 (line from a melanoma biopsy)
[7] = tested on: CBRC014 (line from a melanoma biopsy)
[8] = tested on: CBRC016 (line from a melanoma biopsy)
[9] = tested on: CBRC017 (line from a melanoma biopsy)
[10] = tested on: CBRC034 (line from a melanoma biopsy)
[11] = tested on: COLO792
[12] = tested on: COLO800
[13] = tested on: COLO829
[14] = tested on: G361
[15] = tested on: IPC-298
[16] = tested on: IST-MEL1
[17] = tested on: LB2518-MEL
[18] = tested on: LOXIMVI

Row | SMILES | cleaved PARP positive nuclei fraction [1] [%] | cleaved PARP positive nuclei fraction [2] [%] | cleaved PARP positive nuclei fraction [3] [%] | cleaved PARP positive nuclei fraction [4] [%] | cleaved PARP positive nuclei fraction [5] [%] | cleaved PARP positive nuclei fraction [6] [%] | cleaved PARP positive nuclei fraction [7] [%] | cleaved PARP positive nuclei fraction [8] [%] | cleaved PARP positive nuclei fraction [9] [%] | cleaved PARP positive nuclei fraction [10] [%] | cleaved PARP positive nuclei fraction [11] [%] | cleaved PARP positive nuclei fraction [12] [%] | cleaved PARP positive nuclei fraction [13] [%] | cleaved PARP positive nuclei fraction [14] [%] | cleaved PARP positive nuclei fraction [15] [%] | cleaved PARP positive nuclei fraction [16] [%] | cleaved PARP positive nuclei fraction [17] [%] | cleaved PARP positive nuclei fraction [18] [%]
1 | O=C(Nc1cccc(Cl)c1)Nc1ncc(CCNc2ncnc3ccsc23)s1 + COc1ccc2c(c1)CCC1C2CCC2(C)C(NCCCCCCN3C(=O)C=CC3=O)CCC12 [U73122] (first compound 0.0008 µM, partner dose 0.4 µM) | 80.2 | 52.1 | 83.9 | 178 | 68.1 | 155 | 97.8 | 178 | 96.4 | 72 | 59.4 | 65.7 | 123 | 264 | 166 | 87.3 | 75.6 | 62.3
2 | Cc1cc(N2CCOCC2)cc2[nH]c(-c3c(NC[C@@H](O)c4cccc(Cl)c4)cc[nH]c3=O)nc12 + COc1cc2ncnc(Nc3ccc(Oc4ccccc4)cc3)c2cc1OC [SrcI1] (first compound 0.2 µM, partner dose 2 µM) | 95.8 | 306 | 29.5 | 250 | 43.6 | 118 | 92.9 | 105 | 43.3 | 90.6 | 106 | 172 | 44.8 | 86.4 | 46.4 | 83.4 | 232 | 54.7
3 | O=C(Nc1cccc(Cl)c1)Nc1ncc(CCNc2ncnc3ccsc23)s1 + Cn1cc(/C=C2\C(=O)Nc3cccnc32)c2ccccc21 [GW441756] (first compound 0.0008 µM, partner dose 0.4 µM) | 213 | 184 | 80.9 | 142 | 43.2 | 185 | 96.6 | 128 | 83.5 | 86.9 | 60.7 | 131 | 120 | 123 | 81.2 | 113 | 126 | 58.8
4 | OCCn1cc(-c2cnc3nnn(Cc4ccc5ncccc5c4)c3n2)cn1 + O=c1cc(-c2cccc3c2Sc2ccccc2S3)oc(N2CCOCC2)c1 [KU55933] (first compound 1 µM, partner dose 1 µM) | 101 | 220 | 97.9 | 34.5 | 79.8 | 34.8 | 95.8 | 57 | 208 | 96.3 | 94.6 | 65.5 | 112 | 117 | 123 | 40 | 66.6 | 59.9
5 | Cn1c(Nc2ccc(C(F)(F)F)cc2)nc2cc(Oc3ccnc(-c4ncc(C(F)(F)F)[nH]4)c3)ccc21 + CCc1ccc(CCOc2ccc(CC3SC(=O)NC3=O)cc2)nc1 [pioglitazone] (first compound 0.08 µM, partner dose 2 µM) | 91.3 | 190 | 93.8 | 511 | 146 | 142 | 115 | 103 | 80.4 | 106 | 229 | 88.5 | 85 | 229 | 86.3 | 133 | 75.5 | 150
6 | COCC[n+]1c2c(n(Cc3cnccn3)c1C)C(=O)c1ccccc1C2=O + Cn1cc(/C=C2\C(=O)Nc3cccnc32)c2ccccc21 [GW441756] (first compound 0.0004 µM, partner dose 0.4 µM) | 166 | 199 | 229 | 261 | 50.3 | 52.8 | 100 | 45.8 | 322 | 49 | 102 | 129 | 176 | 86.5 | 44.4 | 133 | 159 | 123
7 | CC(C)(C)c1cnc(CSc2cnc(NC(=O)C3CCNCC3)s2)o1 + N#Cc1c(O)c2c(-c3ccc(-c4ccccc4O)cc3)csc2[nH]c1=O [A769662] (first compound 0.01 µM, partner dose 2 µM) | 34.1 | 38 | 59.2 | 35.7 | 106 | 72.7 | 110 | 123 | 78.5 | 45 | 85 | 119 | 139 | 27.3 | 86 | 28.9 | 194 | 91
8 | C[C@]1(c2nc3c(C(N)=O)cccc3[nH]2)CCCN1 [Veliparib] + c1cc(-c2cnn3cc(-c4ccc(OCCN5CCCCC5)cc4)cnc23)ccn1 [Dorsomorphin] (first compound 1.4 µM, partner dose 0.4 µM) | 83.3 | 82.9 | 133 | 113 | 39.7 | 166 | 115 | 67.1 | 88.4 | 61.7 | 54.5 | 114 | 166 | 161 | 43.6 | 417 | 178 | 33.7
9 | O=C(CCCCCCC(=O)Nc1ccccc1)NO [vorinostat] + CC(C)CCN1c2nc(Nc3cc(F)c(O)c(F)c3)ncc2N(C)C(=O)C1C [BID1870] (first compound 0.08 µM, partner dose 0.2 µM) | 73.3 | 66.9 | 74.6 | 174 | 253 | 70.5 | 162 | 96.1 | 66.4 | 75.1 | 116 | 50 | 48.5 | 186 | 82.5 | 33.5 | 90.7 | 133
10 | Cc1nc(Nc2ncc(C(=O)Nc3c(C)cccc3Cl)s2)cc(N2CCN(CCO)CC2)n1 [dasatanib] + Oc1nc(-c2ccc(C(F)(F)F)cc2)nc2c1CSCC2 [XAV939] (first compound 0.004 µM, partner dose 2 µM) | 72.5 | 71.1 | 79.8 | 166 | 108 | 37.9 | 118 | 108 | 79.6 | 181 | 231 | 66.4 | 166 | 46.8 | 34.5 | 141 | 50.1 | 63.8
